In patent publication US20030100772A1, “Oxygen-containing heterocyclic compounds” (priority 2000, published 2003):
Some entries share one result that the patent states for a list of compounds. At least one compound was matched to its structure with a doubt left.

Amino acid sequences for entries named in this document (tags omitted). A change or cut given only in a name is not applied to a line headed by its entry.
UniProt P27815: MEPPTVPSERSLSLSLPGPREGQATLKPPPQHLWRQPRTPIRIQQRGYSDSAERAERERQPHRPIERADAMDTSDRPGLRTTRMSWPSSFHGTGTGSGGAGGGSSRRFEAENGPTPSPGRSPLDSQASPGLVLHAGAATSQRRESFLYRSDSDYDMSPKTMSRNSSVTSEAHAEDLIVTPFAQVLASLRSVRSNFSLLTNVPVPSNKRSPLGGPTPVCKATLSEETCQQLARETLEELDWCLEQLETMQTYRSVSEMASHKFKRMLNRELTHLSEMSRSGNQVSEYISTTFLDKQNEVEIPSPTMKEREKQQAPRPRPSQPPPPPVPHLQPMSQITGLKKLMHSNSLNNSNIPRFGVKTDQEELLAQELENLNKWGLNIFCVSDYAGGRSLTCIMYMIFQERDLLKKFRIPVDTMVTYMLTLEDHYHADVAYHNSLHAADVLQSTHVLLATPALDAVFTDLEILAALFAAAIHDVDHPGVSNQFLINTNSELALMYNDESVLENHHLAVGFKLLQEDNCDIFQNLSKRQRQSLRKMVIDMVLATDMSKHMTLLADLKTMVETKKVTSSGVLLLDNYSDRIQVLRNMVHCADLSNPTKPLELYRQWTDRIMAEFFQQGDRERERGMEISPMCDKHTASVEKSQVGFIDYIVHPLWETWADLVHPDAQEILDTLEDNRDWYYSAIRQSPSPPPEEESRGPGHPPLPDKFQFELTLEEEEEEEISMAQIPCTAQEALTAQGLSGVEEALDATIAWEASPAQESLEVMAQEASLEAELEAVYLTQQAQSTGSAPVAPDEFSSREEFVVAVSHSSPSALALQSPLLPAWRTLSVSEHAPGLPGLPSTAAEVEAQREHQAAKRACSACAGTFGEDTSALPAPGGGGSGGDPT

Biological target: T1, recombinant human PDE IV enzyme (HSPDE4A4B) (Homo sapiens, UniProt P27815)
T1 construct: made in house; host or cells: Sf9 insect cells
Assay: Inhibition test on recombinant human PDE IV enzyme
Assay type: biochemical
Details: drug concentration of 10 μmol/L; [3H]cAMP 1 μmol/L substrate
Protocol: Inhibition Test on Recombinant Human PDE IV Enzyme
Human phosphodiesterase cDNA (HSPDE4A4B) was isolated from HL-60 cells. The expected amino acid sequence is the same as that (HSPDE4A5) reported by G. Bolger et al. [Mol. Cell Biol. 13, p. 6558 (1993)]. This recombinant protein was expressed in Sf9 insect cells. The PDE activity was determined by the following two step process according to the method by R. L. Kincaid and V. C. Manganiello [Method. Enzymol., 159, pp. 457-470 (1988)]. Using [^3H]cAMP (final concentration: 1 μmol/L) as a substrate, the reaction was conducted in a standard mixture containing N,N-bis(2-hydroxyethyl)-2-aminoethanesulfonic acid (50 mmol/L, pH 7.2), MgCl2 (1 mmol/L) and soybean trypsin inhibitor (0.1 mg/mL). The reaction was started by addition of the enzyme, and the incubation was conducted at 30° C. for 10 to 30 minutes. The reaction was terminated with hydrochloric acid, and the formed 5′-AMP was completely decomposed with […]. After chromatography with DEAE-Sephadex A-25, the eluted [^3H]-adenosine was counted by a scintillation counter. The test compounds were added after dissolved in DMSO (concentration: 1.7%).

COc1ccc(C2(C#N)CCC(N3C(=O)c4ccccc4C3=O)CC2)c2c1OCCO2 (stereo not drawn) [Compound 11, trans-4-Cyano-4-(8-methoxy-1,4-benzodioxan-5-yl)-1-phthalimidocyclohexane]
enzyme inhibitory activity: ≥ 30%
